No constants are given. Whether binding was seen depends on the method and setting. Binding seen in cells or lysates may run through a third protein. Binding calls can cover weak binding; strength is not graded here. For some assays here: Sequences can lack the tags named with a protein. Values belong to the binder of their own block, whether it stands above or below them.
How the values were obtained:
[1] = target: SHB1:YFP^C (Arabidopsis thaliana); assay: split reporter; BiFC in N. benthamiana leaf epidermal cells after agroinfiltration, pSPYNE and pSPYCE fusions under the CaMV 35S promoter, images 48-72 h after transfection, fluorescence or confocal microscope; also done in the dark (interaction less frequent)
[2] = target: SHB1:GFP (Arabidopsis thaliana); assay: co-IP; protein extracts of 35S::SHB1:GFP and of 35S::CCA1:FLAG or 35S::LHY:MYC transgenic Arabidopsis seedlings mixed, 2-3 h at 4 °C, IP buffer (25 mM Tris-HCl pH 7.5, 150 mM NaCl, 0.1% Triton), precipitated with anti-GFP antibody, blots with anti-FLAG or anti-MYC
[3] = target: SHB1:GFP (Arabidopsis thaliana); assay: co-IP; 35S::SHB1:GFP transgenic plants in the dark and under red light; SHB1:GFP precipitated, endogenous CCA1 or LHY detected with anti-CCA1 or anti-LHY antibodies

binding [1]: no binding
B1: LHY N173:YFP^N (domain or fragment, UniProt Q6R0H1 1-173)
chain: MDTNTSGEELLAKARKPYTITKQRERWTEDEHERFLEALRLYGRAWQRIEEHIGTKTAVQIRSHAQKFFTKLEKEAEVKGIPVCQALDIEIPPPRPKRKPNTPYPRKPGNNGTSSSQVSSAKDAKLVSSASSSQLNQAFLDLEKMPFSEKTSTGKENQDENCSGVSTVNKYPL

binding [1]: binds
B2: LHY C487:YFP^N (domain or fragment, UniProt Q6R0H1 174-645)
chain: PTKQVSGDIETSKTSTVDNAVQDVPKKNKDKDGNDGTTVHSMQNYPWHFHADIVNGNIAKCPQNHPSGMVSQDFMFHPMREETHGHANLQATTASATTTASHQAFPACHSQDDYRSFLQISSTFSNLIMSTLLQNPAAHAAATFAASVWPYASVGNSGDSSTPMSSSPPSITAIAAATVAAATAWWASHGLLPVCAPAPITCVPFSTVAVPTPAMTEMDTVENTQPFEKQNTALQDQNLASKSPASSSDDSDETGVTKLNADSKTNDDKIEEVVVTAAVHDSNTAQKKNLVDRSSCGSNTPSGSDAETDALDKMEKDKEDVKETDENQPDVIELNNRKIKMRDNNSNNNATTDSWKEVSEEGRIAFQALFARERLPQSFSPPQVAENVNRKQSDTSMPLAPNFKSQDSCAADQEGVVMIGVGTCKSLKTRQTGFKPYKRCSMEVKESQVGNINNQSDEKVCKRLRLEGEAST

binding [1]: binds
B3: LHY:YFP^N (protein, UniProt Q6R0H1 1-645)
chain: MDTNTSGEELLAKARKPYTITKQRERWTEDEHERFLEALRLYGRAWQRIEEHIGTKTAVQIRSHAQKFFTKLEKEAEVKGIPVCQALDIEIPPPRPKRKPNTPYPRKPGNNGTSSSQVSSAKDAKLVSSASSSQLNQAFLDLEKMPFSEKTSTGKENQDENCSGVSTVNKYPLPTKQVSGDIETSKTSTVDNAVQDVPKKNKDKDGNDGTTVHSMQNYPWHFHADIVNGNIAKCPQNHPSGMVSQDFMFHPMREETHGHANLQATTASATTTASHQAFPACHSQDDYRSFLQISSTFSNLIMSTLLQNPAAHAAATFAASVWPYASVGNSGDSSTPMSSSPPSITAIAAATVAAATAWWASHGLLPVCAPAPITCVPFSTVAVPTPAMTEMDTVENTQPFEKQNTALQDQNLASKSPASSSDDSDETGVTKLNADSKTNDDKIEEVVVTAAVHDSNTAQKKNLVDRSSCGSNTPSGSDAETDALDKMEKDKEDVKETDENQPDVIELNNRKIKMRDNNSNNNATTDSWKEVSEEGRIAFQALFARERLPQSFSPPQVAENVNRKQSDTSMPLAPNFKSQDSCAADQEGVVMIGVGTCKSLKTRQTGFKPYKRCSMEVKESQVGNINNQSDEKVCKRLRLEGEAST

binding [2]: binds
B4: LHY:MYC (protein, UniProt Q6R0H1 1-645)
chain: B3 chain

binding [3]: binds
B5: LHY (endogenous) (protein, UniProt Q6R0H1 1-645)
chain: B3 chain

From paper PMC6629618
